{"source": "PubChem BioAssay AID652259 – Drosophila RNAi Screening Center, 2013", "assay": "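Genome-wide hunt for genes that control Wingless pathway activity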 (primary screen)", "cell system": "Drosophila clone 8 imaginal disc epithelial cells", "reagent": "long dsRNA against Drosophila genes", "conditions": "pathway stimulated by co-transfected Wingless expression plasmid", "measured": "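Dual luciferase reads per well after Wingless plasmid stimulation: reporter firefly light and Renilla control light; activity is firefly divided by Renilla, a ratio not deposited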", "direction": "firefly reporter light: higher = more Wg reporter light, before normalisation; Renilla control light: higher = more transfected or surviving cells", "call rule": "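a knock-down is a candidate when at least two out of four statistical tests show it departing from its plate mean; one test alone signals a weak candidate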", "meaning of the calls": "active = candidate regulator (raises or lowers reporter); inactive = not a candidate", "note": "The screen tested about 22,000 reagents; below is an unselected part of those with a known target gene and a result. Over the whole deposit, 233 (1.1%) are marked active. 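Light values are raw, unnormalised plate reads; the ratio scores behind the reporter calls were not deposited.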 Unmarked entries are inactive. Not given: the amount of reagent, the time to read-out, the dose of the treatment."}
{"gene knocked down": "IP3K1", "amplicon": "DRSC02734", "firefly reporter light, replicate 1": 6843, "Renilla control light, replicate 1": 5021}
{"gene knocked down": "lncRNA:CR34047", "amplicon": "DRSC07857", "firefly reporter light, replicate 1": 5602, "Renilla control light, replicate 1": 2504}
{"gene knocked down": "lncRNA:CR34047", "amplicon": "DRSC21689", "firefly reporter light, replicate 1": 7.82e5, "firefly reporter light, replicate 2": 7.29e5, "Renilla control light, replicate 1": 3.71e5, "Renilla control light, replicate 2": 3.24e5}
{"gene knocked down": "GlcAT-P", "amplicon": "DRSC10603", "firefly reporter light, replicate 1": 5654, "Renilla control light, replicate 1": 2874}
{"gene knocked down": "GlcAT-P", "amplicon": "DRSC10604", "firefly reporter light, replicate 1": 6016, "Renilla control light, replicate 1": 1716}
{"gene knocked down": "Rpe", "amplicon": "DRSC06407", "firefly reporter light, replicate 1": 8636, "Renilla control light, replicate 1": 1485}
{"gene knocked down": "Reck", "amplicon": "DRSC10504", "firefly reporter light, replicate 1": 5601, "Renilla control light, replicate 1": 2673}
{"gene knocked down": "Reck", "amplicon": "DRSC10505", "firefly reporter light, replicate 1": 8477, "Renilla control light, replicate 1": 2208}
{"gene knocked down": "Prestin", "amplicon": "DRSC10507", "firefly reporter light, replicate 1": 4152, "Renilla control light, replicate 1": 2032}
{"gene knocked down": "Rad17", "amplicon": "DRSC16811", "firefly reporter light, replicate 1": 8803, "Renilla control light, replicate 1": 1954}
{"gene knocked down": "bw", "amplicon": "DRSC04005", "firefly reporter light, replicate 1": 11752, "Renilla control light, replicate 1": 7943}
{"gene knocked down": "bw", "amplicon": "DRSC04677", "firefly reporter light, replicate 1": 9939, "Renilla control light, replicate 1": 2747}

A stretch of the results above, for reference:
{"gene knocked down": "GlcAT-P", "amplicon": "DRSC10604", "firefly reporter light, replicate 1": 6016, "Renilla control light, replicate 1": 1716}
{"gene knocked down": "Rpe", "amplicon": "DRSC06407", "firefly reporter light, replicate 1": 8636, "Renilla control light, replicate 1": 1485}
